Measurements reported in patent US6495152B2, “Sulfur containing polyhydroxyalkanoate compositions and method of production” (Tepha, Inc., priority 2000, dated 2002).
Some results were stated once for a whole list of compounds, not compound by compound.

System: Pseudomonas strains
Assay: Growth experiments of pseudomonades on alkylthioalkanoic acids
Assay type: cell-based
Source text: Bacterial strains and culture conditions. The PHA-negative mutant R. eutropha PHB^−4 (DSM 541) and a recombinant strain of R. eutropha PHB^−4 harbouring plasmid pBBR1::phaC1 expressing the PHA synthase 1 of Pseudomonas mendocina, as well as Pseudomonas putida KT2440 (Worsey & Williams, “Metabolism of toluene and xylenes by Pseudomonas putida (arvilla) mt-2: evidence for a new function of the TOL plasmid” in J Bacteriol 124:7-13 (1975)), P. aeruginosa PAO1 (ATCC 15692), P. oleovorans (ATCC 29347), and P. mendocina (DSM 50017) were used. Cultivations were performed in nutrient broth (NB) medium or mineral salts medium (MSM) according to Schlegel (1961), supra, to which different alkylthioalkanoic acids were added as carbon sources from filter-sterilized 10% (w/v) stock solutions at the concentrations indicated in the text. Fed batch cultivations were carried out under aerobic conditions at 30° C. in 2 l Erlenmeyer flasks containing 500 ml of medium which were agitated at 130 r.p.m. In order to promote PHA accumulation, the ammonia concentration was reduced to 0.05% (w/v) in MSM.
Growth and PHA accumulation of bacteria on alkylthioalkanoic acids. […]

Substance | Concentration in the medium up to which good growth occurred
octylthiohexanoic acid [OTHx] | up to 1 % (w/v)
propylthioundecanoic acid [PTUD] | up to 1 % (w/v)
